Source: publication PMC7819943, “Rice protein-binding microarrays: a tool to detect cis-acting elements near promoter regions in rice”
The other results are listed elsewhere or left out.

Sequences of proteins named here, by UniProt entry; tags and fusion partners are left off.
UniProt Q0JBA9, entry or part of it: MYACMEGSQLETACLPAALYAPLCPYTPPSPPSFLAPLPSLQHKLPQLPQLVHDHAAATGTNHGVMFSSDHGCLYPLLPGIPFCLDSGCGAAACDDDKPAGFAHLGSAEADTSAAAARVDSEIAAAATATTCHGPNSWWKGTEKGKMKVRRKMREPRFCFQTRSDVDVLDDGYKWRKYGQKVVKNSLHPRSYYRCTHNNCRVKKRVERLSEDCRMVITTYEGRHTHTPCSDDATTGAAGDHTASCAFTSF

The sequences below were run against OsWRKY34 (Oryza sativa, UniProt Q0JBA9 1-250) (assay: protein-binding microarray (RPBM); PBS, 2% BSA, 51.3 ng/ul salmon testes DNA, 50 uM zinc acetate, 200 nM TF, 25 C, 1 h; high values mean tight binding). Settings: protein: recombinant; tags: N-terminal polyhistidine and DsRed monomer fusion (pET32a); label: CyDye5-dUTP incorporated in the synthesized complementary strand; 3' TTTTT single-stranded linker to array surface; dsDNA, one strand shown.
Method in brief: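 Transcription factors were made in E. coli BL21-CodonPlus as N-terminal fusions to a polyhistidine tag and DsRed, then purified on Ni–NTA. After primer extension with Cy5-dUTP and blocking with 2% BSA, a custom Agilent array was exposed for 1 h at 25 °C to 200 nM protein in PBS, 2% BSA, salmon testes DNA and 50 µM zinc acetate. Washed arrays were scanned on an Axon 4000B, and the binding signal is per-feature fluorescence intensity in arbitrary units.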

| Sequence | binding signal |
| --- | --- |
| GAGGCGAAGGGGAGGAGGAGGTCAGGTGGCGGCGGCGGCGCGGAGTCACCTAGTGCAG | 8220 fluorescence intensity (a.u.) |
| CGTCTCTTTTTTTCGCGACTTTTTTTCTTTTATTTTTCTCCGGAGTCACCTAGTGCAG | 15600 fluorescence intensity (a.u.) |
| CGTGAATGCGCCACACTGCCTCGTTTTTTTAGTGCAAGGACGGAGTCACCTAGTGCAG | 11700 fluorescence intensity (a.u.) |
| TGAATTACTACCGTGTACTCCGATCTCTCTCTGGATATACCGGAGTCACCTAGTGCAG | 8180 fluorescence intensity (a.u.) |
| CTTTTGTATTTATCAAGATTGTTTGATTTTGTGCTGTTAACGGAGTCACCTAGTGCAG | 10600 fluorescence intensity (a.u.) |
| ACAATTCCTATGTTTTTTCTGTGTTTTACAATCCTCTGTTCGGAGTCACCTAGTGCAG | 9240 fluorescence intensity (a.u.) |
| GCAGCCTTAATTAGCATTTCTAGAAAATTCTACTTCTTCCCGGAGTCACCTAGTGCAG | 9150 fluorescence intensity (a.u.) |
| CCTCCACCTCGCCGCCGCCGCTGCTCGCGACCGATCTTCACGGAGTCACCTAGTGCAG | 10700 fluorescence intensity (a.u.) |
| AGTGTTGTGGGGTTTATTTATTGTTGAGGAGATGGTCTTTCGGAGTCACCTAGTGCAG | 15500 fluorescence intensity (a.u.) |
| CATGAAATTCTTATTCTTACATTCCAATTGGCCTTAACCTCGGAGTCACCTAGTGCAG | 8500 fluorescence intensity (a.u.) |
| CCGCTACGCTCGCCGCGCCGCCGCGGGTGGGGAGATTTGACGGAGTCACCTAGTGCAG | 8650 fluorescence intensity (a.u.) |
| TCCTCTAGTACCCACTGTGTCAATCTTCTAGTTACACTAGCGGAGTCACCTAGTGCAG | 10300 fluorescence intensity (a.u.) |
| CCTCCACCTCCTCCCCGGGTCGGCCATGCTCTGCCTCAGCCGGAGTCACCTAGTGCAG | 8620 fluorescence intensity (a.u.) |
| ACCATTTTGTGATTTGTTGCTGCAAGCCTCATTATCGTTCCGGAGTCACCTAGTGCAG | 9280 fluorescence intensity (a.u.) |
| ACCTACTCTGCCGTCACCGACATCCTCTTCTATGGCTCGTCGGAGTCACCTAGTGCAG | 11000 fluorescence intensity (a.u.) |
| TATTCCATCACCTCATTCTATGCTCGCTAAAACATATACCCGGAGTCACCTAGTGCAG | 8590 fluorescence intensity (a.u.) |
| TCACTTTGGGTCTCTTTATTTTTTATCCAGTCCGATTTTCCGGAGTCACCTAGTGCAG | 9230 fluorescence intensity (a.u.) |
| CGGTAGGCCAATAGCTGTCGTCTTGCCAGATCTTTATGTCCGGAGTCACCTAGTGCAG | 8320 fluorescence intensity (a.u.) |
| TGGGGATGGGGAATTGACCTGGGTAGGGGTGGTAATTGGGCGGAGTCACCTAGTGCAG | 16000 fluorescence intensity (a.u.) |
| TAGTGACGCCAACCCTCGCCTCAATCGGCCCCGCTGCCAGCGGAGTCACCTAGTGCAG | 9360 fluorescence intensity (a.u.) |
| GAAGAGCCGGCTCGTTCCTCTCCTTCCCGTTCACATTTCACGGAGTCACCTAGTGCAG | 8260 fluorescence intensity (a.u.) |
| TCTTCGTCGCGTCATGCGCGCCCGGCCACGTTTTCCTCACCGGAGTCACCTAGTGCAG | 8180 fluorescence intensity (a.u.) |
| TCTGTTCTTCCCTAGCGATGGTTGACTTGTTACTTCTCGACGGAGTCACCTAGTGCAG | 12400 fluorescence intensity (a.u.) |
| TAGTTAGTGTCCCTGATGGGCCTGTTGAGGTATTGACTATCGGAGTCACCTAGTGCAG | 8570 fluorescence intensity (a.u.) |
| GTTACTATGGTTGTGGGCCTTACAAGCCCACTTTAGTCAACGGAGTCACCTAGTGCAG | 8130 fluorescence intensity (a.u.) |
| TGTCATTTGGCATGTTCCATTCCATCAAGTGTGATTAGACCGGAGTCACCTAGTGCAG | 8690 fluorescence intensity (a.u.) |
| CCTTTCGTCCACCACCAGTCCACCACACAGCGGCCGGAGCCGGAGTCACCTAGTGCAG | 9080 fluorescence intensity (a.u.) |

3 neighbouring records out of the list so far, for reference:

| Sequence | binding signal |
| --- | --- |
| GTTACTATGGTTGTGGGCCTTACAAGCCCACTTTAGTCAACGGAGTCACCTAGTGCAG | 8130 fluorescence intensity (a.u.) |
| TGTCATTTGGCATGTTCCATTCCATCAAGTGTGATTAGACCGGAGTCACCTAGTGCAG | 8690 fluorescence intensity (a.u.) |
| CCTTTCGTCCACCACCAGTCCACCACACAGCGGCCGGAGCCGGAGTCACCTAGTGCAG | 9080 fluorescence intensity (a.u.) |

Later entries.

| Sequence | binding signal |
| --- | --- |
| ATTTTGGATTTAACCGGCTTTTAAACTCGTCCATGTTTTCCGGAGTCACCTAGTGCAG | 8770 fluorescence intensity (a.u.) |
| ACTACTACCAGTACTGTTGTATCTGCCATTTTCTGCTCCTCGGAGTCACCTAGTGCAG | 10400 fluorescence intensity (a.u.) |
| ATTGTCTTTATCTATTCCCAGTGCATATATTTCATACTTTCGGAGTCACCTAGTGCAG | 14900 fluorescence intensity (a.u.) |
| TCTCTTCTCTACCAATCATATTTATTCTTCATCTATTATGCGGAGTCACCTAGTGCAG | 9020 fluorescence intensity (a.u.) |
| CCTGGTGTTTGATTTCCACAATTTTTTTTAATTGCTTACACGGAGTCACCTAGTGCAG | 11900 fluorescence intensity (a.u.) |
| CTTTTACAGGAGTAGTTTTGTTTTAGGCTGTGTTTAGATCCGGAGTCACCTAGTGCAG | 8520 fluorescence intensity (a.u.) |
| CATCATCATCCGTCTTCTTCCACTCGCGTAGAAGCAAGTCCGGAGTCACCTAGTGCAG | 8940 fluorescence intensity (a.u.) |
| AGATCTTGATCCGCTCTGCCTCAATCTTCCACACGACCACCGGAGTCACCTAGTGCAG | 8920 fluorescence intensity (a.u.) |
| AGTAGTAGTGCAACTTCCTTTTTCCGATGTATCTTTTTTTCGGAGTCACCTAGTGCAG | 9630 fluorescence intensity (a.u.) |
| ATCCTAATATTTTTGTGTTGAAATTCGGTCTTCACTTTTCCGGAGTCACCTAGTGCAG | 11500 fluorescence intensity (a.u.) |
| ACATTACCCTTTTGATCTCATGGCTTTGACTCTTAGGGTTCGGAGTCACCTAGTGCAG | 8760 fluorescence intensity (a.u.) |
| AACAGGTGGGTCCATTAGCGCCACACTATTTTCTCTCCATCGGAGTCACCTAGTGCAG | 9590 fluorescence intensity (a.u.) |
| CTTCTCTCCTCTCCGCTGTGGTTTCTTGCTGGTTCTTGGACGGAGTCACCTAGTGCAG | 10400 fluorescence intensity (a.u.) |
| ACTGCTGTACATCATCATTGACATGCTATAATTTTTTTTCCGGAGTCACCTAGTGCAG | 9080 fluorescence intensity (a.u.) |
| ACCATGCCACCATATGTCTGATTAGCACACTTCTTTTAAACGGAGTCACCTAGTGCAG | 8720 fluorescence intensity (a.u.) |
| TGCATCTTCTTCTTCTTCCTCCCTTTGCCTTGGATTTTCCCGGAGTCACCTAGTGCAG | 8800 fluorescence intensity (a.u.) |
| GTGTTGAAAATTTGGCACATCCTTTGTTTTTTCCCCTTTTCGGAGTCACCTAGTGCAG | 9980 fluorescence intensity (a.u.) |
| ACCCTATTTTAATTACCACATTATATGCATACATTTCATGCGGAGTCACCTAGTGCAG | 8280 fluorescence intensity (a.u.) |
| AGTATTCTCTCTCTCTAGTACATTCTCATGTTCTTTCAGGCGGAGTCACCTAGTGCAG | 8140 fluorescence intensity (a.u.) |
| CGCCGCCCATCTTGTCCCAATTCGGCTCCTATAAATTTCCCGGAGTCACCTAGTGCAG | 8750 fluorescence intensity (a.u.) |
| ATTATTATCCTTGCTCTCATTCTCTCTCTTTGATTCTCTCCGGAGTCACCTAGTGCAG | 9870 fluorescence intensity (a.u.) |
| CGTTTCAGTTTATAAGACGTTTTGACTCTTGTCAAATTTTCGGAGTCACCTAGTGCAG | 9300 fluorescence intensity (a.u.) |
| AAAGAAACAGAGTTATCTGCCACACGTATTTTTTTCTTGTCGGAGTCACCTAGTGCAG | 9110 fluorescence intensity (a.u.) |
| TCTTACTTGACCCTTCTTTCTTGTCCATACAGATTGGGCCCGGAGTCACCTAGTGCAG | 9090 fluorescence intensity (a.u.) |
| GTTTCTTTTTTTTTCTCCTTTCCACCTATAGGTTACTAGCCGGAGTCACCTAGTGCAG | 8220 fluorescence intensity (a.u.) |
| CATCATTTACATCTTGGGCATTTGCGATAGCTCTAGGGTTCGGAGTCACCTAGTGCAG | 8500 fluorescence intensity (a.u.) |
| AAAGTTCGTTTCAGCTCCTGTTATGATCCATCTACACCTTCGGAGTCACCTAGTGCAG | 9180 fluorescence intensity (a.u.) |
